Reference: PMC7819943, “Rice protein-binding microarrays: a tool to detect cis-acting elements near promoter regions in rice”
This is one part of the list.

biological target: T1, OsSMF1 (Oryza sativa, UniProt Q6ZLB0 1-436); assay: protein-binding microarray (RPBM); PBS, 2% BSA, 51.3 ng/ul salmon testes DNA, 50 uM zinc acetate, 200 nM TF, 25 C, 1 h; high values mean tight binding; settings: protein: recombinant; tags: N-terminal polyhistidine and DsRed monomer fusion (pET32a); chain copies: 2; label: CyDye5-dUTP incorporated in the synthesized complementary strand; 3' TTTTT single-stranded linker to array surface; dsDNA, one strand shown
T1 sequence: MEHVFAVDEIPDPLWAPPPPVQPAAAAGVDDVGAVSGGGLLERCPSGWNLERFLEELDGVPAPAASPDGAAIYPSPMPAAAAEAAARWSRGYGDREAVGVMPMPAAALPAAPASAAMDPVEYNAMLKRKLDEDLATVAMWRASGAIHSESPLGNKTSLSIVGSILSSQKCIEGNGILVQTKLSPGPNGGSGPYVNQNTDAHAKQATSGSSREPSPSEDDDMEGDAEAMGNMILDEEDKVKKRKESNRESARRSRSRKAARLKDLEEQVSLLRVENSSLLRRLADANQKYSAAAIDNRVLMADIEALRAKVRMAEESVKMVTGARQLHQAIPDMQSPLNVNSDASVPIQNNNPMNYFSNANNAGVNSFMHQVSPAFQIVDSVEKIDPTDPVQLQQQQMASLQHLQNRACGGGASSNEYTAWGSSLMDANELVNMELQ
How it was run: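 Using Ni–NTA, transcription factors fused N-terminally to polyhistidine and DsRed were purified after expression in E. coli BL21-CodonPlus. These were incubated at 200 nM with a blocked, double-stranded custom Agilent array for 1 h at 25 °C in a buffer containing 50 µM zinc acetate, and the array was washed. The binding signal is per-feature fluorescence intensity (arbitrary units) on an Axon 4000B scanner.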

Row | Sequence | binding signal
1 | CCTCGCCACCGGCGAGTCCGCCACGTCGAGGAGGTTCGCCCGGAGTCACCTAGTGCAG | 7300 fluorescence intensity (a.u.)
2 | GCCCTCCTTCTGACCGTCCCCTCCGCCACGCTCTTCTTCCCGGAGTCACCTAGTGCAG | 3600 fluorescence intensity (a.u.)
3 | AACATATAAGAACATTACTGGGTCTTTGAAGTCCTTGTGTCGGAGTCACCTAGTGCAG | 3350 fluorescence intensity (a.u.)
4 | GTTGACAAGGGATTGAGTGAGTGCGTTGTAACGGTGGGCACGGAGTCACCTAGTGCAG | 3290 fluorescence intensity (a.u.)
5 | CGCTTGCGGCTGCAGGCTGCTGAGCTCGTCCGTCAAGCGCCGGAGTCACCTAGTGCAG | 17400 fluorescence intensity (a.u.)
6 | CGAATCGAACGATTTATTAGGCGTTTTATTATGTCACAGACGGAGTCACCTAGTGCAG | 21800 fluorescence intensity (a.u.)
7 | TAACTGAAGGCGGCGCTCAGTCCCGCGCCTTCTGGAACCTCGGAGTCACCTAGTGCAG | 33000 fluorescence intensity (a.u.)
8 | TTAGACCCATTCGGGCTGGATGACGTCAATAAGGCGGGGCCGGAGTCACCTAGTGCAG | 11200 fluorescence intensity (a.u.)
9 | CCCTCGCCGCCACGGCGAACCCCTCGCCGCCGCCACCGCCCGGAGTCACCTAGTGCAG | 3570 fluorescence intensity (a.u.)
10 | CCTAGACTCTACCACCATACCACTATCATCACTTCTTCCGCGGAGTCACCTAGTGCAG | 3150 fluorescence intensity (a.u.)
11 | ACTGACAGGTGGGTCCCACACCGTCAGCAGTAGGACATAACGGAGTCACCTAGTGCAG | 5490 fluorescence intensity (a.u.)
12 | CACGTACGCCGCCGTGTCTCATCACGAGCTCGATCGTTTCCGGAGTCACCTAGTGCAG | 4150 fluorescence intensity (a.u.)
13 | TCTGCGCGGTGGTCCCAGGCGTTGACGTGACGGGCGGCGACGGAGTCACCTAGTGCAG | 3690 fluorescence intensity (a.u.)
14 | GCCTCTGCCACGCCCACCTCATCCGCCTCTACCTCCGCTCCGGAGTCACCTAGTGCAG | 6040 fluorescence intensity (a.u.)
15 | CCTCTCCTTCCCGTCCGCATCACGCCCTCGTGGAGTCGTGCGGAGTCACCTAGTGCAG | 4270 fluorescence intensity (a.u.)
16 | AATATAAGTGTAAAACAGAGAATTGCAAAACACAGGAAAACGGAGTCACCTAGTGCAG | 31500 fluorescence intensity (a.u.)
17 | TATATTGCCCACACCACATGTTGTTCATTGTTGAAGGCACCGGAGTCACCTAGTGCAG | 3340 fluorescence intensity (a.u.)
18 | TGTTTGTTTTGGTCACATTGCCCATAACTGTATCTGCACACGGAGTCACCTAGTGCAG | 3760 fluorescence intensity (a.u.)
19 | GCATTGGTGTGTCATGACAATGTAATGATTTTCACTGAGCCGGAGTCACCTAGTGCAG | 5250 fluorescence intensity (a.u.)
20 | AGTTTGTACGACAAGCCATGTCAAATGACAATGCAGTTTGCGGAGTCACCTAGTGCAG | 3210 fluorescence intensity (a.u.)
21 | ACGGAGCAGTGGGATGACGACACGTGCGCGCATCGTATGGCGGAGTCACCTAGTGCAG | 5800 fluorescence intensity (a.u.)

Row | Sequence | binding signal
22 | GGCGACTAGCTACGCGTGCATATGCACGAACTGTTCGATGCGGAGTCACCTAGTGCAG | 3200 fluorescence intensity (a.u.)
23 | TGCCGGTGGATGTTGATGGTGGTGTTTGGTGCCGGTGAATCGGAGTCACCTAGTGCAG | 4720 fluorescence intensity (a.u.)
24 | CGCGCACAACTATGTGCAAATGACGCCGAAGAGAGCTGTGCGGAGTCACCTAGTGCAG | 3260 fluorescence intensity (a.u.)
25 | AGGTACGGAACAAAATTATTGTAACATGATGGCATTTGAGCGGAGTCACCTAGTGCAG | 3160 fluorescence intensity (a.u.)
26 | GTAAACGGCACATCAAATGCCACGTGGGACGAAGACCTAGCGGAGTCACCTAGTGCAG | 10200 fluorescence intensity (a.u.)
27 | TGGAATTCACATACATAAACACTCAATAGGAGTAGAAATTCGGAGTCACCTAGTGCAG | 3240 fluorescence intensity (a.u.)
28 | TCCCAAACTTTCGACACTGCCATGTCAGCAATCACTTTCCCGGAGTCACCTAGTGCAG | 18000 fluorescence intensity (a.u.)
29 | TGCAGCAGCATGAGTGCATGACCCACCCGGTTTGTTGGTTCGGAGTCACCTAGTGCAG | 3160 fluorescence intensity (a.u.)
30 | ACGACTTGTCGAACCCCGCCGCCGCTGCCAGATCGGAGGCCGGAGTCACCTAGTGCAG | 3510 fluorescence intensity (a.u.)
31 | CTCCAAAATCTCTATAGGATTGTCCATTCCATAGGAATTTCGGAGTCACCTAGTGCAG | 3390 fluorescence intensity (a.u.)
32 | AATTTACTATGTACTGCAGGGGTGAGATTATACCACTTGACGGAGTCACCTAGTGCAG | 3430 fluorescence intensity (a.u.)
33 | CTCCTCATCCCCACGCCACCGCCGCCATCGCCGGCCTTTTCGGAGTCACCTAGTGCAG | 3260 fluorescence intensity (a.u.)
34 | ATTCATCGATCTATCGCTTTAACCGCCTATAAGAACATGGCGGAGTCACCTAGTGCAG | 4910 fluorescence intensity (a.u.)
35 | TCCTTTAATTATATAATAGATTTCCAGATATTCTTTTACCCGGAGTCACCTAGTGCAG | 3880 fluorescence intensity (a.u.)
36 | GCGATGGTGTGCATCGCCACCGCGTCGTGGTCCTTGCCGACGGAGTCACCTAGTGCAG | 3200 fluorescence intensity (a.u.)
37 | CCTGCCTACGTGCCGCCGGTAGCTCAAGTCGATAGGCAAGCGGAGTCACCTAGTGCAG | 3590 fluorescence intensity (a.u.)
38 | ATTACATATGTAAGTGACGTGCAAGTGGGTTTTACTACGTCGGAGTCACCTAGTGCAG | 7810 fluorescence intensity (a.u.)
39 | AAAAGTATAGTTGGTTGTCATGTATAACTCTCAACCTCTACGGAGTCACCTAGTGCAG | 3350 fluorescence intensity (a.u.)
40 | CCGCCAGTAGTGCCCGTCCCCAGCGCATCCGCAGACGATCCGGAGTCACCTAGTGCAG | 3600 fluorescence intensity (a.u.)
41 | CGGGAGAGGGAGGTGATGATGGGGCGGCGGAGGATTGGAGCGGAGTCACCTAGTGCAG | 4900 fluorescence intensity (a.u.)
42 | ACGAGGCCGATGCCGTGTCGCCCGCCGCCGAATCATCGCCCGGAGTCACCTAGTGCAG | 4920 fluorescence intensity (a.u.)

Taken from above:
Entry of GTAAACGGCACATCAAATGCCACGTGGGACGAAGACCTAGCGGAGTCACCTAGTGCAG under binding signal: 10200 fluorescence intensity (a.u.)
Entry of CTCCTCATCCCCACGCCACCGCCGCCATCGCCGGCCTTTTCGGAGTCACCTAGTGCAG under binding signal: 3260 fluorescence intensity (a.u.)
